From PubChem BioAssay AID624291 (National Center for Advancing Translational Sciences (NCATS), 2012)
Screen size: about 350,000 compounds; about 220 (0.063%) were called active. The inconclusive results got no clear call from the source; some entries with a clear call stand among them for comparison. Calls follow the shape of the dose curve; as a rule, active = well fitted activation curve with a large enough effect; inconclusive = small, poorly fitted or top-dose-only effect; inactive = no such curve, though single readings can be large or run the other way. Potencies of inconclusive entries are doubtful fits and often do not repeat.

Experiment: qHTS for Activators of Integrin-Mediated Alleviation for Muscular Dystrophy; also: nearly all actives have a fitted effect of over 60% in size;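 as to activation: 100% = response of the positive control SU9516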
Conditions: alpha7betagal myoblasts, beta-gal FDG fluorescence, 48 h; activation: at 38.3 µM (top of the series)
Procedure, shortened: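 Alpha7betagal+/- myoblasts (passage 13) were plated 16-24 hr, then exposed to compounds (1:260 dilution of DMSO stock) for 48 hours at 37C. After MPER lysis, β-galactosidase reporter activity was read as FDG fluorescence (ex 480/em 540) after 30 minutes.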
Potency is read from the fitted curve at half-maximal effect.

Structure (SMILES)	activation	Potency
CC1([N+](=O)[O-])COC2(CCCCC2)OC1	inactive: -5.75%	–
COc1ccc(NC(=S)NC(=O)c2ccccc2Cl)cc1	–	inconclusive: 17.8 µM [activator, single point]
COc1ccc(C2/C(=C(/O)c3ccccc3)C(=O)C(=O)N2c2ccccn2)cc1 (stereo unspecified)	–	inconclusive: 1 µM [activator, partial curve, poor fit]
Nc1ccc(-c2nc3cc([N+](=O)[O-])ccc3o2)cc1	–	inconclusive: 2.24 µM [activator, partial curve, poor fit]
CC(C)n1ncc2c(C(=O)Nc3ccc(S(N)(=O)=O)cc3)cc(C3CC3)nc21	inactive: -37.7%	–
OCC1OC(n2ccc3c(SCc4ccccc4)ncnc32)C(O)C1O (stereo unspecified)	inactive: -11.9%	–
COc1c(C)cccc1C(=O)Nc1ccc(CN2CCOCC2)cc1	–	inconclusive: 1.41 µM [activator, partial curve, poor fit]
O=C(Nc1ccc(F)cc1F)c1ccc2c(c1)OCCO2	–	inconclusive: 3.98 µM [activator, full curve, poor fit]
COc1cccc(CN(C)C(=O)c2cc(COc3c(F)cccc3F)on2)c1	inactive: -24.1%	–
COc1cc2c(cc1OC)CN(C(=S)Nc1ccccc1Cl)CC2	inactive: 0%	–
CCCN1CCN(C(=O)c2ccc3[nH]c(C)c(C)c3c2)CC1	inactive: 3.34%	–
O=C(Cn1cc([N+](=O)[O-])cn1)NCc1ccco1	–	inconclusive: 17.8 µM [activator, partial curve, poor fit]
Cc1ccc(NC(=O)COC(=O)c2ccc(C)c(S(=O)(=O)N3CCOCC3)c2)cc1	inactive: -0.0833%	–
O=C(NNS(=O)(=O)c1ccc([N+](=O)[O-])cc1)C(=O)Nc1cccc(C(=O)O)c1	–	inconclusive: 0.708 µM [activator, full curve, poor fit]
Cc1ccc(CNC(=O)C2CCCN(S(=O)(=O)N3CC(C)CC(C)C3)C2)cc1 (stereo unspecified)	–	inconclusive: 11.2 µM [activator, partial curve, poor fit]
O=C(NCCCO)C(=O)NCc1ccncc1	–	inconclusive: 2.51 µM [activator, single point]
COc1ccc(NC(=S)Nc2ccc3nsnc3c2)cc1	inactive: 7.54%	–
CCCCOc1ccc(C(=O)Nc2cc(C)c(OCC(=O)N3CCOCC3)c(C)c2)cc1	inactive: -31.4%	–
Cc1ccccc1-n1ncc2c1CC(C)(C)CC2NC(=O)C1CCC1 (stereo unspecified)	inactive: -22.1%	–
O=C(Cc1n[nH]c(=O)c2ccccc12)OCC(=O)c1ccc(F)cc1	–	inconclusive: 2.24 µM [activator, partial curve, poor fit]
COc1ccc(CNC(=O)COC(=O)c2cc(-c3cccs3)nc3ccccc23)cc1OC	inactive: 14.4%	–
O=C1C(=O)N(CCN2CCOCC2)C(c2ccc(Cl)cc2)/C1=C(/O)c1ccc(S(=O)(=O)N2CCOCC2)cc1 (stereo unspecified)	–	inconclusive: 5.01 µM [activator, single point]
CC(C)c1ccc(-c2csc(NC(=O)c3cccs3)c2C(=O)O)cc1	–	inconclusive: 1 µM [activator, partial curve, poor fit]

Structure (SMILES)	activation	Potency
CC(=O)c1ccc(NS(=O)(=O)c2ccc3c(c2)N(C(C)=O)CCO3)cc1	–	inconclusive: 3.16 µM [activator, partial curve, poor fit]
CCOC(=O)C1=NNC(C(=O)OCC)C1c1ccccc1 (stereo unspecified)	–	inconclusive: 15.8 µM [activator, partial curve, poor fit]
COCCCn1c(C)nnc1-c1cnn(-c2ccccc2)c1N	–	inconclusive: 28.2 µM [activator, single point]
COc1ccc2oc(=O)cc(-c3cc4cccc(OC)c4o3)c2c1	–	inconclusive: 28.2 µM [activator, single point]
COc1ccc(C(=O)NC2CCCN(Cc3ccc(Cl)cc3)C2)c(OC)c1 (stereo unspecified)	–	inconclusive: 5.01 µM [activator, partial curve]
Cc1ccc(-c2noc(C3CCCN(C(=O)c4ccccc4Br)C3)n2)o1 (stereo unspecified)	–	inconclusive: 2 µM [activator, full curve, poor fit]
CCOc1cc(/C=C2\SC(=Nc3ccc(CC)cc3)NC2=O)ccc1OCC(=O)O	–	inconclusive: 5.01 µM [activator, single point]
CC1CCCC(C)N1/N=C/c1ccccc1F (stereo unspecified)	–	inconclusive: 3.16 µM [activator, single point]
CN1CCN(CCCN2c3ccccc3Sc3ccc(C(F)(F)F)cc32)CC1	–	inactive
CCn1c(SCC(=O)NCc2ccc3c(c2)OCO3)nnc1-c1ccco1	–	inconclusive: 4.47 µM [activator, single point]
COc1ccc(/C=N/NC(=S)Nc2cc(C(F)(F)F)ccc2Cl)cc1	–	inconclusive: 5.01 µM [activator, single point]
CC(C)c1ccc(-c2csc3nc[nH]c(=O)c23)cc1	–	inconclusive: 10 µM [activator, partial curve, poor fit]
O=C(N/N=C/c1ccc(-c2ccccc2)o1)c1ccccc1O	inactive: -39.1%	–
Cc1cc(C)cc(N2CN=c3s/c(=C\c4ccco4)c(=O)n3C2)c1	inactive: 7.95%	–
OCC1(Cc2ccccc2C(F)(F)F)CCN(Cc2ccccc2)CC1	inactive: -31.3%	–
CCCN(CCC)c1nc(N)nc(-c2cc(Cl)ccc2OC)n1	inactive: -8.42%	–
COC(=O)CNS(=O)(=O)c1ccc(Cc2ccc(S(=O)(=O)NCC(=O)OC)cc2)cc1	–	inconclusive: 3.55 µM [activator, single point]
Fc1ccc(-c2nnn(Cc3ccc(F)cc3Cl)n2)cc1	–	inconclusive: 1.41 µM [activator, partial curve, poor fit]
COc1ccc(/C=C2\SC(=O)N(CCNC(=O)C3CC4C=CC3C4)C2=O)cc1 (stereo unspecified)	inactive: 4.3%	–
CC(=O)Oc1ccc2c3c(c(=O)oc2c1)CCCC3	–	inconclusive: 2.82 µM [activator, partial curve, poor fit]
Cc1ccccc1C(=O)NC(=S)NCCc1ccccc1	inactive: 4.68%	–
Cn1c(C(=O)NC2CCCCC2)cc2c(=O)n3ccccc3nc21	–	inconclusive: 28.2 µM [activator, single point]
COC(=O)CN(c1ccccc1)S(=O)(=O)c1ccc(F)cc1	inactive: 18.5%	–

Three of the compounds above, with each value named.
CCOC(=O)C1=NNC(C(=O)OCC)C1c1ccccc1 (stereo unspecified)
  Potency: inconclusive: 15.8 µM [activator, partial curve, poor fit]
CN1CCN(CCCN2c3ccccc3Sc3ccc(C(F)(F)F)cc32)CC1
  Potency: inactive
COC(=O)CNS(=O)(=O)c1ccc(Cc2ccc(S(=O)(=O)NCC(=O)OC)cc2)cc1
  Potency: inconclusive: 3.55 µM [activator, single point]
